Data reported in US6344564B1, “Fungicidal 2-imidazolin-5-ones and 2-imidazoline-5-thiones” (priority 1992, dated 2002).
Some results were stated once for a whole list of compounds, not compound by compound.

Columns and labels:
Phytophthora infestans = assay type: in vivo; settings: dose of 1 g/l; tomato plants (Marmande) sprayed 24 hours before infecting; seven days after infecting
Pyricularia oryzae = assay type: in vivo; settings: dose of 1 g/l; rice sprayed 24 hours before contamination; reading 6 days after contamination
Septoria tritici = assay: In vivo test on Septoria tritici (leaf spot of wheat); settings: dose of 1 g/l; wheat plants (Darius) sprayed 24 hours before contamination; marking 20 days after contamination

Measured: protection

COC1=NC(C)(c2ccc(Cl)cc2)C(=O)N1Nc1ccccn1 (racemic) [Compound 406]
at least 75%: all assays above

COC1=NC(C)(c2ccc(F)cc2)C(=O)N1Nc1ccccc1 (racemic) [Compound 419]
at least 75%: all assays above

COC1=NC(C)(c2ccc(Cl)cc2)C(=O)N1Nc1ccccc1C (racemic) [Compound 420]
at least 75%: all assays above

COC1=NC(C)(c2ccc(C)cc2)C(=O)N1Nc1ccccc1C (stereo not drawn) [Compound 432]
at least 75%: all assays above

COC1=NC(C)(c2ccc(Cl)cc2)C(=O)N1Nc1ccccc1F (stereo not drawn) [Compound 442]
at least 75%: all assays above

COC1=NC(C)(c2ccc(F)cc2)C(=O)N1Nc1ccccc1Cl (stereo not drawn) [Compound 443]
at least 75%: all assays above

COC1=NC(C)(c2ccccc2)C(=O)N1Nc1ccccc1F (stereo not drawn) [Compound 447]
at least 75%: all assays above

COC1=NC(C)(c2ccc(F)cc2)C(=O)N1Nc1cccc(F)c1 (stereo not drawn) [Compound 450]
at least 75%: all assays above

COC1=NC(C)(c2cccc(Cl)c2)C(=O)N1Nc1ccccc1 (stereo not drawn) [Compound 452]
at least 75%: all assays above

COC1=NC(C)(c2cccc(Cl)c2)C(=O)N1Nc1cccc(Cl)c1 (stereo not drawn) [Compound 454]
at least 75%: all assays above

COC1=NC(C)(c2cccc(Cl)c2)C(=O)N1Nc1cccc(F)c1 (stereo not drawn) [Compound 455]
at least 75%: all assays above

COC1=NC(C)(c2cccc(F)c2)C(=O)N1Nc1ccccc1 (stereo not drawn) [Compound 457]
at least 75%: all assays above

COC1=NC(C)(c2ccc(Oc3ccccc3)cc2)C(=O)N1Nc1ccccn1 (stereo not drawn) [Compound 463]
at least 75%: all assays above

COC1=NC(C)(c2ccc(F)cc2F)C(=O)N1Nc1ccccc1 (stereo not drawn) [Compound 464]
at least 75%: all assays above

COC1=NC(C)(c2ccc(Oc3ccccc3)cc2)C(=O)N1Nc1ccccc1 (stereo not drawn) [Compound 466]
at least 75%: all assays above

COC1=NC(C)(c2ccc(Oc3ccccc3)cc2)C(=O)N1Nc1cccc(F)c1 (stereo not drawn) [Compound 467]
at least 75%: all assays above

COC1=NC(C)(c2ccccc2F)C(=O)N1Nc1cccc(F)c1 (stereo not drawn) [Compound 472]
at least 75%: all assays above

COC1=NC(C)(c2ccccc2F)C(=O)N1Nc1cccc(Cl)c1 (stereo not drawn) [Compound 474]
at least 75%: all assays above
